Measurements reported in the supplement of paper PMC9135407.
Values joined by “and” are separate entries in the source; they are usually repeats but may differ in a detail not shown here. Identical values can stand only once. Counter-ions that a name gives are not always drawn. ± gives the standard deviation of the averaged measurements. The list shows a part of the results. Plates or batches differ in their baseline, so values are only roughly comparable.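 Assay uses culture-activated primary human stellate myofibroblasts; lipid droplet recovery indicates inactivation. Measured: proportion of Hoechst-counted cells over a plate-specific Bodipy cutoff, duplicate wells, DMSO and nortriptyline as per-plate negative and positive controls. A hit scores, control-normalized, above the plate's top-tenth-percentile nortriptyline wells or ranks among its three best wells. Final well concentrations not reported.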

Tested on: primary human hepatic stellate cells (donor 1)
Assay: percent Bodipy-positive cells; higher = more lipid droplet accumulation
Conditions: 48 h
[1] = library stock concentration: 1 mM
[2] = library stock concentration: 10 mM
[3] = library stock concentration: 3.33 mM
[4] = library stock concentration: 80 uM
[5] = library stock concentration: 400 uM

CCCCC(CC)CNC(=N)NC(=N)NCCCCCCNC(=N)NC(=N)NCC(CC)CCCC (stereo unspecified) [Alexidine dihydrochloride]
percent Bodipy-positive cells: 98.3 ± 2.5%

CC/C=C\C/C=C\C/C=C\C/C=C\C/C=C\CCCCCC(=O)O [Docosapentaenoic Acid]
percent Bodipy-positive cells [1]: 11.4 ± 4.3%

CC/C=C\C/C=C\C/C=C\C/C=C\C/C=C\CCCCCC(=O)O [Docosapentaenoic acid]
percent Bodipy-positive cells [1]: 13.6 ± 6.8%

C=C(C)[C@@H]1CC=C(C(=O)O)CC1 [Perillic acid (-)]
percent Bodipy-positive cells [2]: 22.6 ± 4%

C=C(C)[C@@H]1CC=C(C(=O)O)CC1 [(-)-Perillic acid]
percent Bodipy-positive cells [2]: 15.8 ± 3%

O=C1CCc2ccc(OCCCCN3CCN(c4cccc(Cl)c4Cl)CC3)cc2N1
percent Bodipy-positive cells [2]: 85.3 ± 7.8%

COC(=O)[C@@H]1[C@H]2C[C@H]3c4[nH]c5ccccc5c4CCN3C[C@@H]2CC[C@@H]1O [Yohimbine hydrochloride]
percent Bodipy-positive cells: 37.4 ± 20% | percent Bodipy-positive cells (library stock concentration: 5.1 mM): 19.6 ± 2.9% | percent Bodipy-positive cells [2]: 30.6% and 34.9% and 34.5%

COC(=O)[C@@H]1[C@H]2C[C@H]3c4[nH]c5ccccc5c4CCN3C[C@@H]2CC[C@@H]1O [Yohimbine HCl]
percent Bodipy-positive cells [3]: 9.13 ± 4.9% | percent Bodipy-positive cells [2]: 28.4 ± 1.5%

C[C@]12C=CC(=O)C=C1CC[C@@H]1[C@@H]2[C@@H](O)C[C@@]2(C)[C@H]1CC[C@]2(O)C(=O)COC(=O)CCC(=O)O
percent Bodipy-positive cells [2]: 12.6 ± 2.8%

CN(C)CCSSCCNC(=O)C1CCN(C(=O)CSc2ccc(Cl)cc2)CC1
percent Bodipy-positive cells [3]: 42.4 ± 17% | percent Bodipy-positive cells [2]: 32.6 ± 5.5%

Oc1c2ccccc2c2c3c(cccc13)N=N2
percent Bodipy-positive cells [2]: 7.76 ± 3.3% | percent Bodipy-positive cells (library stock concentration: 22.7 mM): 18.9 ± 3.7%

CC(C)C[C@H](NC(=O)[C@H]1O[C@@H]1C(=O)O)C(=O)NCCCCN=C(N)N
percent Bodipy-positive cells [3]: 16.2 ± 1.7% | percent Bodipy-positive cells [2]: 38.8% and 57%

CC1(C)NC(=O)N(c2ccc([N+](=O)[O-])c(C(F)(F)F)c2)C1=O [Nilutamide]
percent Bodipy-positive cells: 9 ± 2.3% | percent Bodipy-positive cells (library stock concentration: 6.3 mM): 11.4 ± 1.6%

N[C@@H](CC(=O)Nc1ccc(Oc2cc(F)c(F)cc2Br)cc1)C(=O)O
percent Bodipy-positive cells [2]: 9.3 ± 1.2%

CN(C)Cc1ccc(-c2nc3cccc4c3n2CCNC4=O)cc1
percent Bodipy-positive cells [3]: 18.9 ± 1.8% | percent Bodipy-positive cells [2]: 67.5 ± 0.51%

O=C(/C=C\n1cnc(-c2cc(C(F)(F)F)cc(C(F)(F)F)c2)n1)NNc1cnccn1
percent Bodipy-positive cells [3]: 36.8 ± 8.8% | percent Bodipy-positive cells [2]: 70 ± 6.9%

CCCCCCc1ccc(O)cc1O [Hexylresorcinol]
percent Bodipy-positive cells [2]: 22.1 ± 2.2%

Cc1[nH]c(/C=C2\C(=O)Nc3ccc(S(=O)(=O)N(C)c4cccc(Cl)c4)cc32)c(C)c1C(=O)N1CCN(C)CC1
percent Bodipy-positive cells [4]: 24.9 ± 0.8% | percent Bodipy-positive cells [5]: 34.3 ± 1.9%

Cc1nc(NC(=O)N2CCC[C@H]2C(N)=O)sc1-c1ccnc(C(C)(C)C(F)(F)F)c1
percent Bodipy-positive cells [4]: 4.09 ± 0.38% | percent Bodipy-positive cells [5]: 7.07 ± 2.4% | percent Bodipy-positive cells (library stock concentration: 2 mM): 6.32 ± 0.45% | percent Bodipy-positive cells [3]: 6.36 ± 3.6% | percent Bodipy-positive cells [2]: 17.1% and 11.4%

CC(C)=CCC[C@](C)(O)C1CC=C(C)CC1 (stereo partly specified) [Bisabolol]
percent Bodipy-positive cells [2]: 27.9 ± 0.51%

CCCCc1oc2ccccc2c1C(=O)c1cc(I)c(OCCN(CC)CC)c(I)c1.Cl [Amiodarone HCl]
percent Bodipy-positive cells [2]: 92 ± 1.5%

Nc1nc(=O)c2c([nH]1)NC[C@@H](CNc1ccc(C(=O)N[C@@H](CCC(=O)O)C(=O)O)cc1)N2C=O [Folinic acid calcium salt]
percent Bodipy-positive cells: 7.88 ± 4.8%

COc1ccc2cc([C@@H](C)C(=O)O)ccc2c1 [(R) -Naproxen sodium salt]
percent Bodipy-positive cells: 9.37 ± 2.2%

CC(C)NCC(O)COc1cccc2ccccc12 (stereo unspecified) [Propranolol HCl]
percent Bodipy-positive cells [3]: 31.4 ± 5.7% | percent Bodipy-positive cells [2]: 79.5 ± 13%

CC(C)NCC(O)COc1cccc2ccccc12 (stereo unspecified)
percent Bodipy-positive cells [2]: 84.5 ± 2.4%

CC(C)NCC(O)COc1cccc2ccccc12 (stereo unspecified) [Propranolol hydrochloride]
percent Bodipy-positive cells: 44 ± 5.8% | percent Bodipy-positive cells [2]: 51.55 ± 0.45%

CC(C)NCC(O)COc1cccc2ccccc12 (stereo unspecified) [Propranolol]
percent Bodipy-positive cells (library stock concentration: 7.7 mM): 49.4 ± 4%

Cn1cc(C2=C(c3ccc(Cl)cc3Cl)C(=O)NC2=O)c2ccccc21
percent Bodipy-positive cells [2]: 93.44 ± 0.44%

CCCCn1c(=O)c2c(ncn2CC(C)=O)n(CCCC)c1=O [Denbufylline]
percent Bodipy-positive cells (library stock concentration: 6.2 mM): 7.18 ± 0.28%

Nc1ncnc2c1c(-c1cnc3[nH]ccc3c1)nn2C1CCCC1
percent Bodipy-positive cells [3]: 12.4 ± 1.1% | percent Bodipy-positive cells [2]: 49.1 ± 2.7%

Cc1c[nH]c(=O)n(CCCN2CCN(c3ccccc3OCC(F)(F)F)CC2)c1=O
percent Bodipy-positive cells [2]: 14.2 ± 0.8%

CCCCC/C=C\C/C=C\C/C=C\C/C=C\CCCC(=O)O[C@H](COCCCCCCCCCCCCCCCC)COP(=O)([O-])OCC[N+](C)(C)C [Arachidonoyl-PAF]
percent Bodipy-positive cells [1]: 28.6 ± 20%

COc1cc(OC)cc(-c2cc3cnc(N)nc3nc2NC(=O)NC(C)(C)C)c1
percent Bodipy-positive cells [2]: 23.8 ± 1.7%

COc1ccc2cc1Oc1ccc(cc1)C[C@H]1c3cc(c(OC)cc3CCN1C)Oc1c(OC)c(OC)cc3c1[C@H](C2)N(C)CC3 [Tetrandine]
percent Bodipy-positive cells (library stock concentration: 8 mM): 100%

COc1ccc2cc1Oc1ccc(cc1)C[C@H]1c3cc(c(OC)cc3CCN1C)Oc1c(OC)c(OC)cc3c1[C@H](C2)N(C)CC3 [Tetrandrine]
percent Bodipy-positive cells: 99.164 ± 0.069% | percent Bodipy-positive cells [3]: 98.3 ± 1% | percent Bodipy-positive cells [2]: 100%

CCC=CCC=CCC=CCC=CCCCCCCC(=O)O [.omega.-3 Arachidonic Acid]
percent Bodipy-positive cells [1]: 11 ± 2.7%

CCCCC[C@H](O)/C=C/[C@H]1[C@H](O)CC(=O)[C@@H]1C/C=C/CCCC(=O)Oc1ccc(NC(C)=O)cc1 [Prostaglandin E2 p-acetamidophenyl ester]
percent Bodipy-positive cells [1]: 18.4 ± 3.4%
